These are yes or no findings as the source states them, for the method shown. Binding seen in cells or lysates may run through a third protein. Some entries that bind do so weakly or less than the wild type.
Biological target: T1, MB20 protein (function unknown, 2-10F) (mouse) (UniProt Q794H2)
T1 sequence (35S-methionine label or biotinylated lysine, by its role in the assay, looked up): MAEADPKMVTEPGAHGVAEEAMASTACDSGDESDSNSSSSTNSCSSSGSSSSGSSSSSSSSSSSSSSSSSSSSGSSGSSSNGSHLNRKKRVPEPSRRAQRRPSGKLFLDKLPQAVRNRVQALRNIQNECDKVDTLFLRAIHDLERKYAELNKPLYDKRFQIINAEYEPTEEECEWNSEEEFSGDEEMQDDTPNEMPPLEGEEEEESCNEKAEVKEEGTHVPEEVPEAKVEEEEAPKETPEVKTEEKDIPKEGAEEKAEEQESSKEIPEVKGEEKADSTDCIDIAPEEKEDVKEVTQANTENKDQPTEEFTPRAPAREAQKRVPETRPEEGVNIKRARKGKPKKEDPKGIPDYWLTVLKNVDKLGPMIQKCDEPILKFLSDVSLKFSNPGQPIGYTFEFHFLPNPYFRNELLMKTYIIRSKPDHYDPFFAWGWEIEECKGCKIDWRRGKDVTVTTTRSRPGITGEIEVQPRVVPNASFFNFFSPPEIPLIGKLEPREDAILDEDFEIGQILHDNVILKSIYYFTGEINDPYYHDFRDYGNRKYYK
Assay: three-level pooled pull-down screen, streptavidin beads

B1: Bpx protein (nucleosome assembly protein homologue) (2-1H) (protein, mouse, UniProt P51860 1-460, looked up)
chain: MAESVDHKELSESNQEELGSQVMAEGPGESQDRSEGVSIEPGDGGQHGEETVAAGVGEEGKGEEAAAGSGEDAGKCGGTDEDSDSDRPKGLIGYLLDTDFVESLPVKVKCRVLALKKLQTRAAHLESKFLREFHDIERKFAEMYQPLLEKRRQIINAVYEPTEEECEYKSDCEDYFEEEMDEEEETNGNEDGMVHEYVDEDDGYEDCYYDYDDEEEEEEEDDSAGATGGEEVNEEDPKGIPDFWLTVLKNVEALTPMIKKYDEPILKLLTDIKVKLSDPGEPLSFTLEFHFKPNEYFKNELLTKTYVLKSKLACYDPHPYRGTAIEYATGCDIDWNEGKNVTLRTIKKKQRHRVWGTVRTVTEDFPKDSFFNFFSPHGISLNGGDENDDFLLGHNLRTYIIPRSVLFFSGDALESQQEGVVREVNDEIYDKIIYDDWMAAIEEVKACCKNLEALVEDIDR
modifications: 35S-methionine label or biotinylated lysine, by its role in the assay
binding: binds
